# Where “and” joins values, the source holds several entries; their conditions need not be identical. Equal entries are not always repeated. Structures can show the parent of a compound that is named as a salt. ± gives the standard deviation of the averaged measurements. This is one part of the list. Part of the spread comes from offsets between plates or batches.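 Assay uses culture-activated primary human stellate myofibroblasts; lipid droplet recovery indicates inactivation. Measured: proportion of Hoechst-counted cells over a plate-specific Bodipy cutoff, duplicate wells, DMSO and nortriptyline as per-plate negative and positive controls. A hit scores, control-normalized, above the plate's top-tenth-percentile nortriptyline wells or ranks among its three best wells. Final well concentrations not reported.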
# Tested on: primary human hepatic stellate cells (donor 1)
# Test: percent Bodipy-positive cells; higher = more lipid droplet accumulation
# Details: 48 h
# Experimental: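 Primary lipid accumulation screen in primary human hepatic stellate cell myofibroblasts (donor 1, passage 8) in 384-well plates. 100 nL of library compound was pin-transferred into 30 µL medium in duplicate, and cells were treated for 48 h. The 'Scaled' score combines distance from plate baseline, toxicity and reproducibility penalties, and is normalised to nortriptyline (positive) and DMSO (negative) controls on each plate. A hit is defined as scaled >0.85 or among the top 3 wells per plate.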
# [1] = library stock concentration: 10 mM
# [2] = library stock concentration: 3.33 mM
# [3] = library stock concentration: 1 mM
smiles,measurement,setting,value
CN[C@@H]1[C@@H](O[C@H]2O[C@H](CO)[C@@H](N)[C@H](O)[C@H]2O)OC2C[C@@H](N)[C@@H](O[C@H]3[C@H](O)[C@@H](O)[C@H](N)C[C@@H]3N)OC2[C@@H]1O (stereo partly specified) [Apramycin],percent Bodipy-positive cells,,12.1 ± 3%
same,percent Bodipy-positive cells,[1],26.7 ± 10%
CC1(C)O[C@H]2CC(=O)OC[C@]23[C@H]2CC[C@@]4(C)[C@H](c5ccoc5)OC(=O)[C@H]5O[C@]54[C@]2(C)C(=O)C[C@@H]13 [Limonin],percent Bodipy-positive cells,[2],23.9 ± 3%
same,percent Bodipy-positive cells,[1],18.1 ± 3.7%
O=C(O)CCC/C=C\C[C@@H]1[C@@H](/C=C/[C@@H](O)CCc2cccc(C(F)(F)F)c2)[C@H](O)C[C@@H]1O [17-trifluoromethylphenyl trinor Prostaglandin F2.alpha.],percent Bodipy-positive cells,[3],15.2 ± 4.6%
CCN(CC)CCOC(=O)c1ccc(N)cc1Cl [Chloroprocaine HCl],percent Bodipy-positive cells,[2],9.42 ± 0.52%
same,percent Bodipy-positive cells,[1],33.62 ± 0.28%
NC(=O)c1cccc(-c2cc(Nc3ccc(OC(F)(F)F)cc3)ncn2)c1,percent Bodipy-positive cells,library stock concentration: 80 uM,18.8 ± 10%
same,percent Bodipy-positive cells,library stock concentration: 400 uM,13 ± 5.7%
same,percent Bodipy-positive cells,library stock concentration: 2 mM,16.9 ± 4.2%
same,percent Bodipy-positive cells,[2],14 ± 8.1%
same,percent Bodipy-positive cells,[1],29.3% and 25.7%
OC[C@H]1NC[C@H](O)[C@@H](O)[C@@H]1O [1-Deoxynojirimycin hydrochloride],percent Bodipy-positive cells,[1],41.1 ± 4.8%
C=C1/C(=C\C=C2/CCC[C@]3(C)[C@@H]([C@H](C)CCCC(C)C)CC[C@@H]23)C[C@@H](O)C[C@@H]1O [Alfacalcidol],percent Bodipy-positive cells,[2],10.8 ± 1.2%
same,percent Bodipy-positive cells,library stock concentration: 5 mM,5.45 ± 1.4%
"CCCCCC(=O)CC[C@@H]1[C@@H](C/C=C\CCCC(=O)O)[C@@H](O)C[C@H]1O [13,14-dihydro-15-keto Prostaglandin F2.alpha.]",percent Bodipy-positive cells,[3],16.4 ± 8.7%
"CCN(CC)CCOC(=O)c1cc(Cl)c(N)cc1OC [SDZ-205,557 hydrochloride]",percent Bodipy-positive cells,[1],28.7 ± 3.9%
CCN(CC)CCOC(=O)c1cc(Cl)c(N)cc1OC [SDZ 205-557 hydrochloride],percent Bodipy-positive cells,[1],6.68 ± 0.86%
NC/C=C/C(=O)O [(E)-4-amino-2-butenoic acid],percent Bodipy-positive cells,[1],23.3 ± 13%
CCCCC[C@H](O)/C=C/[C@H]1C(=O)C[C@H](O)[C@@H]1CCCCCCC(=O)O [Prostaglandin D1],percent Bodipy-positive cells,[3],10.7 ± 0.46%
CCCCCCCCCCCSCC(=O)O [3-Thiatetradecanoic Acid],percent Bodipy-positive cells,[3],7.79 ± 0.48%
Cc1ccc2c(c1)c1c3n2CCNC3CCC1 (stereo unspecified) [Pirlindole mesylate],percent Bodipy-positive cells,,45.5 ± 2.9%
C[n+]1c2cc(N)ccc2cc2ccc(N)cc21 [Acriflavinium hydrochloride],percent Bodipy-positive cells,library stock concentration: 7.7 mM,0%
same,percent Bodipy-positive cells,[1],4.78 ± 5.7%
O=C(N[C@H](CO)[C@H](O)c1ccc([N+](=O)[O-])cc1)C(Cl)Cl [Chloramphenicol],percent Bodipy-positive cells,,23.4 ± 1.2%
same,percent Bodipy-positive cells,[2],9.3 ± 3.9%
same,percent Bodipy-positive cells,library stock concentration: 6.2 mM,6.94% and 3.4%
same,percent Bodipy-positive cells,[1],8.37% and 9.35% and 27.9%
O=C(O)CCNC(=O)c1ccccc1 [Betamipron],percent Bodipy-positive cells,[2],10.3 ± 2.1%
same,percent Bodipy-positive cells,[1],29% and 33.3%
CCC[C@@H]1C[C@@H](C(=O)N[C@@H]([C@H]2O[C@H](SC)[C@H](O)[C@@H](O)[C@H]2O)[C@H](C)Cl)N(C)C1 [Clindamycin HCl],percent Bodipy-positive cells,[2],3.68 ± 2.3%
same,percent Bodipy-positive cells,library stock concentration: 4.7 mM,7.34 ± 1.7%
same,percent Bodipy-positive cells,[1],13.7 ± 1.1%
CCC[C@@H]1C[C@@H](C(=O)N[C@@H]([C@H]2O[C@H](SC)[C@H](O)[C@@H](O)[C@H]2O)[C@H](C)Cl)N(C)C1 [Clindamycin hydrochloride],percent Bodipy-positive cells,,52.7 ± 31%
CCC[C@@H]1C[C@@H](C(=O)N[C@@H]([C@H]2O[C@H](SC)[C@H](O)[C@@H](O)[C@H]2O)[C@H](C)Cl)N(C)C1 [Clindamycin],percent Bodipy-positive cells,[2],8.86 ± 1.6%
same,percent Bodipy-positive cells,[1],17.9 ± 10%
COc1ccc(/C=C/c2ccccc2F)cc1,percent Bodipy-positive cells,[3],14 ± 0.68%
CO[C@H]1/C=C\C=C(/C)C(=O)NC2=CC(=O)C(NCCN(C)C)=C(C[C@@H](C)C[C@H](OC)[C@H](O)[C@@H](C)/C=C(\C)[C@@H]1OC(N)=O)C2=O [17-DMAG (Alvespimycin) HCl],percent Bodipy-positive cells,[2],50.4 ± 9.2%
NCCCNCCCCN(CCCN)/[N+]([O-])=N/O [Spermine NONOate],percent Bodipy-positive cells,[3],6.6 ± 0.25%
Cl.N/C(=N\Cc1ccccc1)NC(=O)c1nc(Cl)c(N)nc1N,percent Bodipy-positive cells,library stock concentration: 14 mM,97.8 ± 1.3%
COc1ccc(C2=N[C@@H](c3ccc(Cl)cc3)[C@H](c3ccc(Cl)cc3)N2C(=O)N2CCNC(=O)C2)c(OC(C)C)c1 [Nutlin-3a],percent Bodipy-positive cells,[1],93.1 ± 2%
Cn1cnc2c1c(=O)[nH]c(=O)n2C [Theobromine],percent Bodipy-positive cells,,9.59 ± 0.54%
same,percent Bodipy-positive cells,[1],12.6% and 24%
CCCCC[C@H](O)/C=C/[C@H]1[C@H](O)CC(=O)[C@@H]1CC(=O)CCCCC(=O)O [6-keto Prostaglandin E1],percent Bodipy-positive cells,[3],9.84 ± 3.3%
CC1=NN(c2ccccc2)C(=O)C1,percent Bodipy-positive cells,[1],7.43 ± 2.9%
CC1=NN(c2ccccc2)C(=O)C1 [Edaravone],percent Bodipy-positive cells,[2],25 ± 20%
same,percent Bodipy-positive cells,[1],19.7 ± 1.1%
CCN(CC)CCNC(=O)c1cc(Cl)c(N)cc1OC [Metoclopramide hydrochloride],percent Bodipy-positive cells,library stock concentration: 5.9 mM,3.1 ± 1.2%
CCN(CC)CCNC(=O)c1cc(Cl)c(N)cc1OC [Metoclopramide monohydrochloride],percent Bodipy-positive cells,,28.5 ± 1.2%
CCN(CC)CCNC(=O)c1cc(Cl)c(N)cc1OC [Metoclopramide HCl],percent Bodipy-positive cells,library stock concentration: 6.7 mM,8.64 ± 3%
CCN(CC)CCNC(=O)c1cc(Cl)c(N)cc1OC [MetoclopraMide HCl],percent Bodipy-positive cells,[2],17.3 ± 0.46%
same,percent Bodipy-positive cells,[1],21.9 ± 7.7%
NCCCNCCCCNCCCN [Spermine tetrahydrochloride],percent Bodipy-positive cells,[1],12.7 ± 3.9%
CC(C)(CO)C(O)C(=O)NCCCO (stereo unspecified) [Panthenol],percent Bodipy-positive cells,library stock concentration: 9.7 mM,11.4 ± 4%
CC(C)(CO)C(O)C(=O)NCCCO (stereo unspecified) [Panthenol (D)],percent Bodipy-positive cells,,26.4 ± 4%
CN(C)C/C=C(/c1ccc(Br)cc1)c1cccnc1 [Zimelidine dihydrochloride monohydrate],percent Bodipy-positive cells,,62.8 ± 8.8%

# An excerpt of these results, bar-delimited:
smiles | measurement | setting | value
O=C(O)CCC/C=C\C[C@@H]1[C@@H](/C=C/[C@@H](O)CCc2cccc(C(F)(F)F)c2)[C@H](O)C[C@@H]1O [17-trifluoromethylphenyl trinor Prostaglandin F2.alpha.] | percent Bodipy-positive cells | [3] | 15.2 ± 4.6%
CCN(CC)CCOC(=O)c1ccc(N)cc1Cl [Chloroprocaine HCl] | percent Bodipy-positive cells | [2] | 9.42 ± 0.52%
NC(=O)c1cccc(-c2cc(Nc3ccc(OC(F)(F)F)cc3)ncn2)c1 | percent Bodipy-positive cells | library stock concentration: 400 uM | 13 ± 5.7%
OC[C@H]1NC[C@H](O)[C@@H](O)[C@@H]1O [1-Deoxynojirimycin hydrochloride] | percent Bodipy-positive cells | [1] | 41.1 ± 4.8%
C=C1/C(=C\C=C2/CCC[C@]3(C)[C@@H]([C@H](C)CCCC(C)C)CC[C@@H]23)C[C@@H](O)C[C@@H]1O [Alfacalcidol] | percent Bodipy-positive cells | [2] | 10.8 ± 1.2%
O=C(N[C@H](CO)[C@H](O)c1ccc([N+](=O)[O-])cc1)C(Cl)Cl [Chloramphenicol] | percent Bodipy-positive cells | [2] | 9.3 ± 3.9%
O=C(O)CCNC(=O)c1ccccc1 [Betamipron] | percent Bodipy-positive cells | [1] | 29% and 33.3%
CCC[C@@H]1C[C@@H](C(=O)N[C@@H]([C@H]2O[C@H](SC)[C@H](O)[C@@H](O)[C@H]2O)[C@H](C)Cl)N(C)C1 [Clindamycin HCl] | percent Bodipy-positive cells | [1] | 13.7 ± 1.1%
CO[C@H]1/C=C\C=C(/C)C(=O)NC2=CC(=O)C(NCCN(C)C)=C(C[C@@H](C)C[C@H](OC)[C@H](O)[C@@H](C)/C=C(\C)[C@@H]1OC(N)=O)C2=O [17-DMAG (Alvespimycin) HCl] | percent Bodipy-positive cells | [2] | 50.4 ± 9.2%
Cn1cnc2c1c(=O)[nH]c(=O)n2C [Theobromine] | percent Bodipy-positive cells |  | 9.59 ± 0.54%
CCN(CC)CCNC(=O)c1cc(Cl)c(N)cc1OC [MetoclopraMide HCl] | percent Bodipy-positive cells | [2] | 17.3 ± 0.46%
same | percent Bodipy-positive cells | [1] | 21.9 ± 7.7%
NCCCNCCCCNCCCN [Spermine tetrahydrochloride] | percent Bodipy-positive cells | [1] | 12.7 ± 3.9%

# From the supplement of paper PMC9135407
